Data reported in publication PMC7804955.
These are yes or no findings as the source states them, for the method shown. Binding seen in cells or lysates may run through a third protein. Some binding calls cover weakened binding; strength is not graded here.

Protein sequences, listed by entry. Tags and fused reporters are not part of them.
UniProt Q9Y6M1: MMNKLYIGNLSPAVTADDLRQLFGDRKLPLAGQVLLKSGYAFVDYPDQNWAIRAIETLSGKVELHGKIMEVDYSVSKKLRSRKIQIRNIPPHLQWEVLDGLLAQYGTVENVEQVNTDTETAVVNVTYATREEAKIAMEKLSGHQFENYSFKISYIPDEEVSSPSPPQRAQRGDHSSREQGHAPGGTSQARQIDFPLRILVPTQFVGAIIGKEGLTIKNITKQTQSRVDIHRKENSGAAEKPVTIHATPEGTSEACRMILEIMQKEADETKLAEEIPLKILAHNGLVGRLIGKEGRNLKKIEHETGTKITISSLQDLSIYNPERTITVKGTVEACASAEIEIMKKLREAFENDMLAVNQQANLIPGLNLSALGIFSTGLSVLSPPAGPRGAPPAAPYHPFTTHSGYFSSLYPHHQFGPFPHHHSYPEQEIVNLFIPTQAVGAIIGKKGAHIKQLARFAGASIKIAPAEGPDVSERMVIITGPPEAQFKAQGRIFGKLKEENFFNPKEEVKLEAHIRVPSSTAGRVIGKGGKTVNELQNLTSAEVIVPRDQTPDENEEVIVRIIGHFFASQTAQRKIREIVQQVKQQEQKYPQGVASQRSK
UniProt O00425: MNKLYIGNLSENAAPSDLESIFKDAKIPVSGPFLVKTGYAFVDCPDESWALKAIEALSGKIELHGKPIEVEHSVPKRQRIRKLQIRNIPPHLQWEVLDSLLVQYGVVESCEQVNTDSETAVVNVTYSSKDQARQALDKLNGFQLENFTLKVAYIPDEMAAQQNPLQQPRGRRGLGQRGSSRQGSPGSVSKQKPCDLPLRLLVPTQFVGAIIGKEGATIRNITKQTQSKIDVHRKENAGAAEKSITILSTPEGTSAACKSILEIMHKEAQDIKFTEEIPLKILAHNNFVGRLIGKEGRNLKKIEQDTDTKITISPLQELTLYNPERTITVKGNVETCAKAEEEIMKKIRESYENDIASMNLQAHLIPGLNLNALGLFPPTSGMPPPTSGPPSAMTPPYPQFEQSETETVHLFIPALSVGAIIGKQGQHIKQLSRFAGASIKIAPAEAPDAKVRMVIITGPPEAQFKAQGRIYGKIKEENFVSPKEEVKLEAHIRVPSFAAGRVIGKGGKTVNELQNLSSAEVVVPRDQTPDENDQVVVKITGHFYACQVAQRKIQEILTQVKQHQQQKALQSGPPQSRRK
UniProt Q9NZI8: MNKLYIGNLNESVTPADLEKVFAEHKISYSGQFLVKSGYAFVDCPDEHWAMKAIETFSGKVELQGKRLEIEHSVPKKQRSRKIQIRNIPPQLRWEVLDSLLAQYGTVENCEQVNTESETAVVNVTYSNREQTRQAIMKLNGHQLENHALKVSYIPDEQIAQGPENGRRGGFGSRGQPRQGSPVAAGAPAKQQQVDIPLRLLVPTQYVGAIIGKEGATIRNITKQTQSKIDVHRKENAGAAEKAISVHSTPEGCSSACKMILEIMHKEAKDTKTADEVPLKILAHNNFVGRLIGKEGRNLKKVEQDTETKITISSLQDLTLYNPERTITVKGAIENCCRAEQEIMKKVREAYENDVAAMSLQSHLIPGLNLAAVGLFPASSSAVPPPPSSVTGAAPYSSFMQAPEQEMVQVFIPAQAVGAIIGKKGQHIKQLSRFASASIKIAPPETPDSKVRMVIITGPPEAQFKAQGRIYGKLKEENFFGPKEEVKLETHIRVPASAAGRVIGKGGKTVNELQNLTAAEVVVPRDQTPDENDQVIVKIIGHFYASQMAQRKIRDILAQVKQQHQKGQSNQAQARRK
UniProt Q14258: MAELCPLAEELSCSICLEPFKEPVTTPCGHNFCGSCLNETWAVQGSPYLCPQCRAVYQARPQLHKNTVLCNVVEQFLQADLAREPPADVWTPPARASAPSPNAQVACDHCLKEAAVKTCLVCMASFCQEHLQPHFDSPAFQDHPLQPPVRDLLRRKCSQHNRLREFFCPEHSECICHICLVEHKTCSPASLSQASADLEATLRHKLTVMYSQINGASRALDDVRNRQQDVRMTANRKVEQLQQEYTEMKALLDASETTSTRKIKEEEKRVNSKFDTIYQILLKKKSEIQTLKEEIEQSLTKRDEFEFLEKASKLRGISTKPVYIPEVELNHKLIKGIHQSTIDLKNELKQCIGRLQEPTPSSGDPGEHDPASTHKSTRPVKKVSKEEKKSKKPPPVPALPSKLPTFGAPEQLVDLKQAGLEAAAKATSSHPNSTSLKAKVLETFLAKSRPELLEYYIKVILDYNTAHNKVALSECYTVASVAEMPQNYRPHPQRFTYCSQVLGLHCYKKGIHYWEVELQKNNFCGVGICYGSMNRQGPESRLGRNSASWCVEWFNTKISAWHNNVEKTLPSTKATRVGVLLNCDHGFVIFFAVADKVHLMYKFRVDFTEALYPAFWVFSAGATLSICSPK

Key:
Assay in all cases: co-IP; A549 cell lysate in co-IP buffer with proteinase, phosphatase and RNase inhibitors; beads preincubated with antibodies, 4 °C overnight; cells also with vector, circNDUFB2 or circNDUFB2-MUT overexpression; RNase R (100 U/ml) treatment
[1] = biological target: Insulin-like growth factor 2 mRNA-binding protein 2 (human) (UniProt Q9Y6M1)
[2] = biological target: Insulin-like growth factor 2 mRNA-binding protein 3 (human) (UniProt O00425)
[3] = biological target: Insulin-like growth factor 2 mRNA-binding protein 1 (human) (UniProt Q9NZI8)

Measured: binding

TRIM25 (from UniProt Q14258 1-630) (enzyme)
binds: all assays above
